# This is one part of the list.
# Assays:
# Experiment in all cases: glycan array binding signal (z-score within array); higher = stronger binding
# Conditions in all cases: glycan notation: IUPAC condensed, linker removed
# [1] = biological target: Fuc(a1-2)[GalNAc(b1-3)]Gal
# Summary of the method: (§1)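 The binding signal is a Z-score computed within each array and averaged over linkers. Arrays of the same protein sequence at different concentrations or buffers were also averaged together. Data originate from 3228 arrays in the Consortium for Functional Glycomics database, kept only where the protein sequence was available.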
# [2] = biological target: Fuc(a1-3)GlcNAc
# Summary of the method: as §1
# [3] = biological target: Fuc(a1-3)[Gal(b1-4)]Glc6S
# Summary of the method: as §1
# [4] = biological target: Fuc(a1-3)[Gal(b1-4)]GlcNAc
# Summary of the method: as §1
# [5] = biological target: Fuc(a1-3)[Gal(b1-4)]GlcNAc(b1-2)Man
# Summary of the method: as §1
# [6] = biological target: Fuc(a1-3)[Gal(b1-4)]GlcNAc(b1-2)Man(a1-3)[Fuc(a1-3)[Gal(b1-4)]GlcNAc(b1-2)Man(a1-6)]Man(b1-4)GlcNAc(b1-4)GlcNAc
# Summary of the method: as §1
# [7] = biological target: Fuc(a1-3)[Gal(b1-4)]GlcNAc(b1-2)Man(a1-3)[Fuc(a1-3)[Gal(b1-4)]GlcNAc(b1-2)Man(a1-6)]Man(b1-4)GlcNAc(b1-4)[Fuc(a1-6)]GlcNAc
# Summary of the method: as §1
# [8] = biological target: Fuc(a1-3)[Gal(b1-4)]GlcNAc(b1-3)Gal(b1-3)[Fuc(a1-4)]GlcNAc
# Summary of the method: as §1
# [9] = biological target: Fuc(a1-3)[Gal(b1-4)]GlcNAc(b1-3)Gal(b1-4)[Fuc(a1-3)]GlcNAc
# Summary of the method: as §1
# [10] = biological target: Fuc(a1-3)[Gal(b1-4)]GlcNAc(b1-3)Gal(b1-4)[Fuc(a1-3)]GlcNAc(b1-3)Gal(b1-4)[Fuc(a1-3)]GlcNAc
# Summary of the method: as §1
# [11] = biological target: Fuc(a1-3)[Gal(b1-4)]GlcNAc(b1-3)GalNAc
# Summary of the method: as §1
# [12] = biological target: Fuc(a1-3)[Gal(b1-4)]GlcNAc(b1-6)GalNAc
# Summary of the method: as §1
# [13] = biological target: Fuc(a1-3)[Gal(b1-4)]GlcNAc(b1-6)[Gal(b1-3)GlcNAc(b1-3)]Gal(b1-4)Glc
# Summary of the method: as §1
# [14] = biological target: Fuc(a1-3)[Gal(b1-4)]GlcNAc6S
# Summary of the method: as §1
# [15] = biological target: Fuc(a1-3)[Gal3S(b1-4)]Glc
# Summary of the method: as §1
# [16] = biological target: Fuc(a1-3)[Gal3S(b1-4)]GlcNAc
# Summary of the method: as §1
# [17] = biological target: Fuc(a1-3)[Gal3S(b1-4)]GlcNAc6S
# Summary of the method: as §1
# [18] = biological target: Fuc(a1-3)[GalNAc(b1-4)]GlcNAc
# Summary of the method: as §1
# [19] = biological target: Fuc(a1-3)[GalNAc(b1-4)]GlcNAc6S
# Summary of the method: as §1
# [20] = biological target: Fuc(a1-4)GlcNAc
# Summary of the method: as §1
# [21] = biological target: Fuc(b1-3)GlcNAc
# Summary of the method: as §1
# [22] = biological target: Gal(a1-2)Gal
# Summary of the method: as §1
# [23] = biological target: Gal(a1-3)Gal
# Summary of the method: as §1
# [24] = biological target: Gal(a1-3)Gal(b1-3)GlcNAc
# Summary of the method: as §1
# [25] = biological target: Gal(a1-3)Gal(b1-3)GlcNAc(b1-2)Man
# Summary of the method: as §1
# [26] = biological target: Gal(a1-3)Gal(b1-3)GlcNAc(b1-2)Man(a1-3)[Gal(a1-3)Gal(b1-3)GlcNAc(b1-2)Man(a1-6)]Man(b1-4)GlcNAc(b1-4)GlcNAc
# Summary of the method: as §1
# [27] = biological target: Gal(a1-3)Gal(b1-3)GlcNAc(b1-3)GalNAc
# Summary of the method: as §1
# [28] = biological target: Gal(a1-3)Gal(b1-3)GlcNAc(b1-6)GalNAc
# Summary of the method: as §1
# [29] = biological target: Gal(a1-3)Gal(b1-3)[Fuc(a1-4)]GlcNAc(b1-2)Man(a1-3)[Gal(a1-3)Gal(b1-3)[Fuc(a1-4)]GlcNAc(b1-2)Man(a1-6)]Man(b1-4)GlcNAc(b1-4)GlcNAc
# Summary of the method: as §1
# [30] = biological target: Gal(a1-3)Gal(b1-4)Glc
# Summary of the method: as §1
# [31] = biological target: Gal(a1-3)Gal(b1-4)GlcNAc
# Summary of the method: as §1
# [32] = biological target: Gal(a1-3)Gal(b1-4)GlcNAc(b1-2)Man
# Summary of the method: as §1
# [33] = biological target: Gal(a1-3)Gal(b1-4)GlcNAc(b1-2)Man(a1-3)[Gal(a1-3)Gal(b1-4)GlcNAc(b1-2)Man(a1-6)]Man(b1-4)GlcNAc(b1-4)GlcNAc
# Summary of the method: as §1
# [34] = biological target: Gal(a1-3)Gal(b1-4)GlcNAc(b1-3)GalNAc
# Summary of the method: as §1
# [35] = biological target: Gal(a1-3)Gal(b1-4)GlcNAc(b1-6)GalNAc
# Summary of the method: as §1
# [36] = biological target: Gal(a1-3)Gal(b1-4)[Fuc(a1-3)]GlcNAc
# Summary of the method: as §1
# [37] = biological target: Gal(a1-3)Gal(b1-4)[Fuc(a1-3)]GlcNAc(b1-2)Man(a1-3)[Gal(a1-3)Gal(b1-4)[Fuc(a1-3)]GlcNAc(b1-2)Man(a1-6)]Man(b1-4)GlcNAc(b1-4)GlcNAc
# Summary of the method: as §1
binder,measurement,setting,value
Epa11 (Candida glabrata) (protein) MGSSHHHHHHSSGLVPRGSHMASSNAPNYPVGCSPSVGTQLTPGLSLEVYAYPMDGNNGYCWNATYKDPEFPRSGYLKNKLLGKADGVVGPLNFLAKNKDCSPKVDTLPAGFNFPQPITVTNFTMVLFGYLAPKQSGKYTFKLLADDLLLLNLGATNAFDCCNREATKNNLGEFLAYNLWPNQDKNVTVYLEKGVYYPLRLFFNNRDGGSQLDFSYYFNDSPAPLTDFSGMFFSVPDGAECPARI,glycan array binding signal (z-score),[1],-0.354
same,glycan array binding signal (z-score),[2],-0.649
same,glycan array binding signal (z-score),[3],-0.02
same,glycan array binding signal (z-score),[4],-0.057
same,glycan array binding signal (z-score),[5],-0.001
same,glycan array binding signal (z-score),[6],-0.21
same,glycan array binding signal (z-score),[7],0.653
same,glycan array binding signal (z-score),[8],-0.232
same,glycan array binding signal (z-score),[9],-0.242
same,glycan array binding signal (z-score),[10],-0.603
same,glycan array binding signal (z-score),[11],0.07
same,glycan array binding signal (z-score),[12],-0.246
same,glycan array binding signal (z-score),[13],-0.377
same,glycan array binding signal (z-score),[14],-0.152
same,glycan array binding signal (z-score),[15],-0.415
same,glycan array binding signal (z-score),[16],-0.608
same,glycan array binding signal (z-score),[17],0.262
same,glycan array binding signal (z-score),[18],0.354
same,glycan array binding signal (z-score),[19],-0.845
same,glycan array binding signal (z-score),[20],-0.209
same,glycan array binding signal (z-score),[21],-0.407
same,glycan array binding signal (z-score),[22],-0.375
same,glycan array binding signal (z-score),[23],0.323
same,glycan array binding signal (z-score),[24],1.3
same,glycan array binding signal (z-score),[25],1.54
same,glycan array binding signal (z-score),[26],1.11
same,glycan array binding signal (z-score),[27],0.909
same,glycan array binding signal (z-score),[28],1.53
same,glycan array binding signal (z-score),[29],0.465
same,glycan array binding signal (z-score),[30],0.246
same,glycan array binding signal (z-score),[31],0.391
same,glycan array binding signal (z-score),[32],0.295
same,glycan array binding signal (z-score),[33],1.5
same,glycan array binding signal (z-score),[34],0.608
same,glycan array binding signal (z-score),[35],0.676
same,glycan array binding signal (z-score),[36],0.242
same,glycan array binding signal (z-score),[37],1.44

# Already shown: an excerpt of the list.
binder,measurement,setting,value
Epa11 (Candida glabrata) (protein) MGSSHHHHHHSSGLVPRGSHMASSNAPNYPVGCSPSVGTQLTPGLSLEVYAYPMDGNNGYCWNATYKDPEFPRSGYLKNKLLGKADGVVGPLNFLAKNKDCSPKVDTLPAGFNFPQPITVTNFTMVLFGYLAPKQSGKYTFKLLADDLLLLNLGATNAFDCCNREATKNNLGEFLAYNLWPNQDKNVTVYLEKGVYYPLRLFFNNRDGGSQLDFSYYFNDSPAPLTDFSGMFFSVPDGAECPARI,glycan array binding signal (z-score),[9],-0.242
same,glycan array binding signal (z-score),[10],-0.603
same,glycan array binding signal (z-score),[11],0.07
same,glycan array binding signal (z-score),[12],-0.246
same,glycan array binding signal (z-score),[13],-0.377
same,glycan array binding signal (z-score),[14],-0.152
same,glycan array binding signal (z-score),[15],-0.415
same,glycan array binding signal (z-score),[16],-0.608
same,glycan array binding signal (z-score),[17],0.262
same,glycan array binding signal (z-score),[18],0.354

# Source: the supplement of paper PMC8728848
